Measurements taken from article PMC11988928.

Chains of the proteins cited; added tags and fusions are not shown. Chains listed by the source or under a name are the forms on record and can include a tag or linker.
KatB (catalase), one chain, as listed by the source: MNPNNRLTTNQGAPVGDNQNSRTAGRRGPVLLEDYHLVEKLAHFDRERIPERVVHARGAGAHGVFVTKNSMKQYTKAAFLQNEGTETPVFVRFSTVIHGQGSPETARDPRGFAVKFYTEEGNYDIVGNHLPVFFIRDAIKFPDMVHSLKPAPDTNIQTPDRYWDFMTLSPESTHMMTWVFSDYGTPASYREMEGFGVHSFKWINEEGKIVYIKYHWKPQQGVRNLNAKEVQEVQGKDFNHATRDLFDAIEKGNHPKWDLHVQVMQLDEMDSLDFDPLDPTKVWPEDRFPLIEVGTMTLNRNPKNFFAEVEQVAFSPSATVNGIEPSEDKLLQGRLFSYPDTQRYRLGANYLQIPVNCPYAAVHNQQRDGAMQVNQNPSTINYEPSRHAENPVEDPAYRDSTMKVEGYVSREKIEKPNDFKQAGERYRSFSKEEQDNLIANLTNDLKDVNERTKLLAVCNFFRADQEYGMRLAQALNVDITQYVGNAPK

Experiments:
[1] = test system: Fur (ferric uptake regulator) (Bacillus thuringiensis 97-27); assay: DNase I footprinting; settings: recombinant protein; residues 1-151; label: 5'-FAM on forward strand; probe letters rebuilt from the primers and the genome
[2] = test system: Fur (ferric uptake regulator) (Bacillus thuringiensis 97-27); assay: EMSA; settings: EMSA: 50 mM Tris-HCl pH 7.5, 10 mM MgCl2, 1 mM DTT, 100 mM NaCl, 25 C, 30 min, 8% native PAGE in 0.5x TBE, metal series with 0.05 mM Fur and 0.001 mM DNA, recombinant protein, residues 1-151, label: none (ethidium bromide stain), probe letters rebuilt from the primers and the genome
KatB (catalase) = assay: EMSA; settings: increasing KatB; EMSA: 50 mM Tris-HCl pH 7.5, 10 mM MgCl2, 1 mM DTT, 100 mM NaCl, 25 C, 30 min; 8% native PAGE in 0.5x TBE; metal series with 0.05 mM Fur and 0.001 mM DNA; recombinant protein; label: none (ethidium bromide stain); probe letters rebuilt from the primers and the …

AGAATAGGAGAAAAGCGACTTACTTTATAAGTAAGTCGCTTTTTATTAAATAAATTGTCATATAAAATTCAGAATCATATTAGAAAAAATCCTTATTTAGAATAATTATCTTTACGTATTTATTATTAGTTGTTATAATTGGAAACAAATGTTCTTGAAAAAGATTCTCATTTATAAAATTGAGGTGTTATATAGATGAAAAAGAAAAAAATAGGTTTACTCGTAATGGCGTATGGAACG (double strand) [PhemH2 promoter fragment, FAM]
binding result [1]: binds

AGAATAGGAGAAAAGCGACTTACTTTATAAGTAAGTCGCTTTTTATTAAATAAATTGTCATATAAAATTCAGAATCATATTAGAAAAAATCCTTATTTAGAATAATTATCTTTACGTATTTATTATTAGTTGTTATAATTGGAAACAAATGTTCTTGAAAAAGATTCTCATTTATAAAATTGAGGTGTTATATAGATGAAAAAGAAAAAAATAGGTTTACTCGTAATGGCGTATGGAACG (double strand) [PhemH2 promoter fragment]
binding result ([2]; Fe2+ up to 0.025 mM (list printed 0, 0.0125, 0.025, 0.01), binding enhanced): binds | binding result ([2]; Fe3+ up to 0.025 mM (list printed 0, 0.0125, 0.025, 0.01), binding enhanced): binds | binding result ([2]; Mn2+ 0.125-0.5 mM, no effect on binding): binds | binding result ([2]; no added Fe/Mn, Fur 0-0.05 mM): binds | binding result (KatB (catalase)): no binding

The exact form of at least one protein or probe is not confirmed. For part of these data: Negatives hold for the conditions tested.
